Data from paper PMC8144298.
Construct, isoform or probe ends are uncertain for at least one entry. For some assays here: The direction of at least one scale is not stated here.

Amino acid sequences for entries named in this document (tags omitted). A change or cut given only in a name is not applied to a line headed by its entry. Residues count along the entry.
UniProt P0A6X3, 2-102: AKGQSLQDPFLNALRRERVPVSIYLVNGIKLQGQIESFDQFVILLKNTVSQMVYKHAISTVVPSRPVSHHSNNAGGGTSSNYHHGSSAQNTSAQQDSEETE
UniProt P69913: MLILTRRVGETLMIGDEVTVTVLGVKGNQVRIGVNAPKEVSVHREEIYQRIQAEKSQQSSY

Columns and labels:
[1] = molecular target: Hfq (UniProt P0A6X3); test: EMSA; details: higher affinity than RrBshort, 2 pmol random 75-nt RNA present; CsrA EMSA: 100 mM KCl, 10 mM MgCl2, 2 mM DTT, 7.5% glycerol, 2 ng total yeast RNA, 120 pM RNA, 10 min 37 C, 8% native PAGE in 1x TBE (pH not stated); recombinant protein; label: 5' 32P; probe letters rebuilt from the primers and the genome; part of a longer molecule
[2] = molecular target: CsrA-3xFLAG (Escherichia coli) (UniProt P69913); test: competition with a labelled probe; details: competitor conc. that fully displaces labeled RrBshort (120 pM) from 200 nM CsrA; CsrA EMSA: 100 mM KCl, 10 mM MgCl2, 2 mM DTT, 7.5% glycerol, 2 ng total yeast RNA, 120 pM RNA, 10 min 37 C, 8% native PAGE in 1x TBE (pH not stated); recombinant protein; probe letters rebuilt from the primers and the genome; part of a longer molecule

Sequence	binding result [1]	binding signal [2]
AACGGAGCGGCACCUCUUUUAACCCUUGAAGUCACUGCCCGUUUCGAGAGUUUCUCAACUCGAAUAACUAAAGCCAACGUGAACUUUUGCGGAUCUCCAGGAUCCGCU [OxyS]	binds	–
GACAGGGAGUCAGACAACGAAGUGAACAUCAGGAUGAUGACACUUCUGCAGGACACACCAGGAUGGUGUUUCAGGGAAAGGCUUCUGGAUGAAGCGAAGAGGAUGACGCAGGACGCGUUAAAGGACACCUCCAGGAUGGAGAAUGAGAACCGGUCAGGAUGAUUCGGUGGGUCAGGAAGGCCAGGGACACUUCAGGAUGAAGUAUCACAUCGGGGUGGUGUGAGCAGGAAGCAAUAGUUCAGGAUGAACGAUUGGCCGCAAGGCCAGAGGAAAAGUUGUCAAGGAUGAGCAGGGAGCAACAAAAGUAGCUGGAAUGCUGCGAAACGAACCGGGAGCGCUGUGAAUACAGUGCUCCCUUUUUUUAUU [CsrB]	–	3.13 nM
